{
  "source": "patent US20190376110A1",
  "about": "“METHOD TO DETECT BACTERIAL ACTIVITY AND PATHOGENICITY WITH BIODYNAMIC SENTINELS” (Purdue Research Foundation, priority 2018, published 2019)",
  "system": "Listeria pellet",
  "details": "compared with E. coli and Salmonella",
  "experimental": "Various bacterial specimens can be prepared in a pellet form. A pellet is a condensed form of bacteria which allows them to be carried and handled more efficiently. Bacteria are grown in LB medium for 4 to 12 hours. When culturing is done, the bacteria density in medium is approximately 10^8 #/mL. To make the pellet, 25 mL of bacteria medium is stored in a centrifuge tube. The medium is centrifuged by 10,000 rpm for 10 minutes (Avanti J-20 XPI). During centrifugation, a pellet is formed at the bottom of a centrifuge tube.\nThere are two different sample plate preparations. A monoplex plate is a plate preparation format to test a rapid response of bacteria in single wells. The time resolution of the spectrum measurement is 2 minutes. A multiplex plate is a mode for measuring slow behavior using a measuring period is 30 minutes. For the multiplex, 16 wells are measured in parallel. A plate is firmly fixed on a translational stage controlled at 37 degrees Celsius or other temperature depending on the cell type and the bacterium. The plate is covered with a semi-permeable membrane which prevents the medium from drying out while permitting air molecule exchange.\nBackscattered light from a specimen forms a speckle field consisting of many speckles with sizes determined by the point-spread-function of the imaging optics, and the speckle is delivered by a 4-f system (L1 and L2, f=15 cm). […]",
  "data": [
    {"smiles": "O=C(O)c1cn(C2CC2)c2cc(N3CCNCC3)c(F)cc2c1=O", "note": "[Cipro, Ciprofloxacin]", "values": [
      {"measurement": "strength of spectral response to Cipro relative to other species", "value": "weakest response"}
    ]}
  ]
}
